PubChem BioAssay AID1259308 | NCATS | 2017
The deposit covers about 59,000 reagents; below is a random part of them. About 1,510 of them (2.6%) were called active. 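Calls use total luciferase alone and ignore viability, so some active siRNAs may act by altering cell number.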 Unmarked entries are inactive. Reagents against one gene are numbered here.

Assay: 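Genes whose loss raises luciferase production in HEK293 cells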 (primary screen)
System: human HEK293 embryonic kidney cells stably expressing firefly luciferase (HEK-CMV-Luc2-Hygro)
Reagent: single siRNA against human genes, 0.8 pmol siRNA per well
Duration: 72 h
Measurement: 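Reporter luminescence and viable-cell signal on separate replicate plates, given as percent of non-targeting control and median/MAD z-scores, plus per-cell luciferase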
Scale: total luciferase, z-score and total luciferase, % of control: higher = more reporter protein produced; luciferase per cell, z-score: higher = more reporter output per viable cell; viable cells, % of control: higher = more viable cells
Hit rule: 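An siRNA counts as active if its total luciferase robust z-score exceeds 3; genes with two or more such siRNAs out of three were retested with fresh siRNAs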
Meaning of the calls: active = raised luciferase; inactive = no rise

The opening 6 entries, to show the layout:
gene symbol	reagent no.	total luciferase, z-score	total luciferase, % of control	luciferase per cell, z-score	viable cells, % of control
KIR2DS1	1	2.26	127	1.14	105
KIR2DS1	2	-0.812	65.7	-0.565	85.3
KIR2DS1	3	-1.08	60.3	-1.35	96.2
TMEM120B (transmembrane protein 120B)	1	1.08	103	1.11	86.2
TMEM120B (transmembrane protein 120B)	2	-0.329	75.3	-0.425	94.2
TMEM120B (transmembrane protein 120B)	3	2.15	125	2.34	75.3

Main list, from the start:
gene symbol	reagent no.	total luciferase, z-score	total luciferase, % of control	luciferase per cell, z-score	viable cells, % of control
KIR2DS1	1	2.26	127	1.14	105
KIR2DS1	2	-0.812	65.7	-0.565	85.3
KIR2DS1	3	-1.08	60.3	-1.35	96.2
TMEM120B (transmembrane protein 120B)	1	1.08	103	1.11	86.2
TMEM120B (transmembrane protein 120B)	2	-0.329	75.3	-0.425	94.2
TMEM120B (transmembrane protein 120B)	3	2.15	125	2.34	75.3
PLEKHH3 (pleckstrin homology, MyTH4 and FERM domain containing H3)	1	-1.86	45	-0.863	63.1
PLEKHH3 (pleckstrin homology, MyTH4 and FERM domain containing H3)	2	0.22	86.3	0.746	79.2
PLEKHH3 (pleckstrin homology, MyTH4 and FERM domain containing H3)	3	-0.664	68.7	-0.487	87.2
CELF5 (CUGBP Elav-like family member 5)	1	2.43	130	2.22	81
CELF5 (CUGBP Elav-like family member 5)	2	2.3	128	1.35	99.9
CELF5 (CUGBP Elav-like family member 5)	3	-0.622	69.5	-0.856	97.3
ACBD3 (acyl-CoA binding domain containing 3)	1	-0.0331	81.2	-0.872	114
ACBD3 (acyl-CoA binding domain containing 3)	2	1.03	102	0.341	105
ACBD3 (acyl-CoA binding domain containing 3)	3	0.467	91.2	0.286	94.5
SLC4A1AP	1	1.54	113	0.725	104
SLC4A1AP	2	-0.523	71.5	-0.432	89.5
SLC4A1AP	3	0.364	89.1	0.514	87
FAM24B (family with sequence similarity 24 member B)	1	0.255	87	-0.266	104
FAM24B (family with sequence similarity 24 member B)	2	-0.705	67.9	-1.27	106
FAM24B (family with sequence similarity 24 member B)	3	-0.69	68.2	-1.1	102
ZNF839P4 (zinc finger protein 839 pseudogene 4)	1	0.635	94.5	0.868	84.1
ZNF839P4 (zinc finger protein 839 pseudogene 4)	2	0.455	90.9	-0.275	109
ZNF839P4 (zinc finger protein 839 pseudogene 4)	3	0.459	91	0.624	86.3
ZNF839P4 (zinc finger protein 839 pseudogene 4)	4	-0.954	62.9	-1.73	111
ZNF839P4 (zinc finger protein 839 pseudogene 4)	5	0.25	86.9	0.404	87.3
ZNF839P4 (zinc finger protein 839 pseudogene 4)	6	0.498	91.8	0.0541	101
ZNF839P4 (zinc finger protein 839 pseudogene 4)	7	2.92	140	2.74	76.1
ZNF839P4 (zinc finger protein 839 pseudogene 4)	8	2.62	134	1.52	100
ZNF839P4 (zinc finger protein 839 pseudogene 4)	9	2.04	122	1.25	98.5
GUCY1B1 (guanylate cyclase 1 soluble subunit beta 1)	1	-0.659	68.8	0.229	72.4
GUCY1B1 (guanylate cyclase 1 soluble subunit beta 1)	2	-0.387	74.2	-0.857	104
GUCY1B1 (guanylate cyclase 1 soluble subunit beta 1)	3	-0.234	77.2	-0.332	94.2
VASH2 (vasohibin 2)	1	-0.106	79.8	-0.131	92.3
VASH2 (vasohibin 2)	2	1.67	115	1.98	76.5
VASH2 (vasohibin 2)	3	0.126	84.4	-0.0232	94.9
DES (desmin)	1	2.97	141	1.76	99
DES (desmin)	2	-0.235	77.2	-0.416	96.3
DES (desmin)	3	-1.15	59	-1.83	107
FABP6 (fatty acid binding protein 6)	1	0.0773	83.4	0.255	87.2
FABP6 (fatty acid binding protein 6)	2	-0.453	72.9	-0.383	90.1
FABP6 (fatty acid binding protein 6)	3	-0.0742	80.4	0.531	78.1
ARHGEF1 (Rho guanine nucleotide exchange factor 1)	1	-0.0438	81	-0.383	100
ARHGEF1 (Rho guanine nucleotide exchange factor 1)	2	1.46	111	1.07	93.6
ARHGEF1 (Rho guanine nucleotide exchange factor 1)	3	-1.57	50.6	-1.84	91.8
CISD1 (CDGSH iron sulfur domain 1)	1	0.424	90.3	0.0206	100
CISD1 (CDGSH iron sulfur domain 1)	2	-0.0347	81.2	-0.33	99
CISD1 (CDGSH iron sulfur domain 1)	3	-0.112	79.7	-0.117	91.8
TOP3B (DNA topoisomerase III beta)	1	0.483	91.5	0.759	83.7
TOP3B (DNA topoisomerase III beta)	2	0.696	95.7	0.141	103
TOP3B (DNA topoisomerase III beta)	3	-0.209	77.7	1.12	64.7
RNF213 (ring finger protein 213)	1	-0.0294	81.3	-0.439	102
RNF213 (ring finger protein 213)	2	-0.0555	80.8	0.301	83.4
RNF213 (ring finger protein 213)	3	-0.282	76.3	-0.549	98.5
RNF213 (ring finger protein 213)	4	0.382	89.5	0.455	88.7
RNF213 (ring finger protein 213)	5	-1.95	43	-1.19	65.8
RNF213 (ring finger protein 213)	6	2.47	131	1.48	99.1
